Data: patent US10730885B1, “Coumarin derivatives” (KING SAUD UNIVERSITY, priority 2019, dated 2020)
Some entries share one result that the patent states for a list of compounds.

System: tested microorganisms
Experiment: Agar well diffusion, summary over the tested microorganisms
Format: cell-based
Conditions: against one or more of the tested microorganisms
Description: The newly synthesized compounds were individually tested for their in vitro antimicrobial activity against the standard bacteria strains of American Type Culture Collection (ATCC), namely, Staphylococcus aureus ATCC 29213, Bacillus subtilis ATCC 6633, Bacillus megaterium ATCC 9885 (Gram-positive), Escherichia coli ATCC 2592 and Pseudomonas aeruginosa ATCC 27953 (Gram-negative). In addition, they were microbiologically tested against the locally isolated Saccharomyces cerevisiae (yeast) and the standard strain of Agricultural Research Service Culture Collection (NRRL) of the yeast like pathogenic fungus Candida albicans NRRL Y-477. The primary screening was carried out using the agar well diffusion method using nutrient agar (NA) medium and Sabourand dextrose agar (SDA) medium for pathological tested bacteria and yeast, respectively.
Antimicrobial tests were carried out by the agar well diffusion method using 100 μL of suspension containing 1×10^8 CFU/mL of pathological tested bacteria and 1×10^6 CFU/ml of yeast spread on NA and SDA, respectively. After the media was cooled and solidified, wells (10 mm in diameter) were made in the solidified agar and loaded with 100 μL of tested compound solution prepared by dissolving 10 mg of the chemical compound in one ml of dimethyl sulfoxide (DMSO). The inculcated plates were then incubated for 24 h at 37° C. for bacteria and yeast. Negative controls were prepared using DMSO employed for dissolving the tested compound. Ciprofloxacin (10 mg/ml) and ketoconazole (10 mg/ml) were used as standard for antibacterial and antifungal activity, respectively. After incubation time, antimicrobial activity was evaluated by measuring the zone of inhibition against the test organisms and compared with that of the standard. Antimicrobial activities were expressed as inhibition diameter zones in millimeters (mm). The experiment was carried out in triplicate and the average zone of inhibition was calculated.

| Structure (SMILES) | growth inhibition zones |
| --- | --- |
| Cc1ccc2oc(=O)c(S(=O)(=O)Nc3ccc(S(=O)(=O)Nc4nccs4)cc3)c(O)c2c1 [Compound 10f, 4-hydroxy-6-methyl-2-oxo-N-(4-(N-(thiazol-2-yl)sulfamoyl)phenyl)-2H-chromene-3-sulfonamide] | ≥ 25 mm |
| O=c1oc2ccc(Cl)cc2c(O)c1S(=O)(=O)Nc1ccc(S(=O)(=O)Nc2ncccn2)cc1 [Compound 10c, 6-Chloro-4-hydroxy-2-oxo-N-(4-(N-(pyrimidin-2-yl)sulfamoyl)phenyl)-2H-chromene-3-sulfonamide] | ≥ 25 mm |
| COc1cc(C=NC2=C(C#N)C(c3ccc([N+](=O)[O-])cc3)c3c(c4cc(C)ccc4oc3=O)O2)cc(OC)c1OC (racemic) [Compound 8c, (±)-9-methyl-4-(4-nitrophenyl)-5-oxo-2-((3,4,5-trimethoxybenzylidene)amino)-4H,5H-pyrano[3,2-c]chromene-3-carbonitrile] | ≥ 25 mm |
| COc1ccc(/C=C/C(=O)c2ccc(NS(=O)(=O)c3c(O)c4cc(Cl)ccc4oc3=O)cc2)cc1 [Compound 12e, (E)-6-chloro-4-hydroxy-N-(4-(3-(4-methoxyphenyl)acryloyl)phenyl)-2-oxo-2H-chromene-3-sulfonamide] | ≥ 25 mm |
| Cc1ccc2oc(=O)c3c(c2c1)OC(N)=C(C(N)=O)C3c1ccc([N+](=O)[O-])cc1 (racemic) [Compound 6a, (±)-2-amino-9-methyl-4-(4-nitrophenyl)-5-oxo-4H, 5H-pyrano[3,2-c]chromene-3-carboxamide] | 15-19 mm |
| NS(=O)(=O)c1ccc(NS(=O)(=O)c2c(O)c3cc(Cl)ccc3oc2=O)cc1 [Compound 10a, 6-Chloro-4-hydroxy-2-oxo-N-(4-sulfamoylphenyl)-2H-chromene-3-sulfonamide] | ≥ 25 mm |
| Cc1ccc2oc(=O)c(S(=O)(=O)Nc3ccc(C(=O)/C=C/c4ccc([N+](=O)[O-])cc4)cc3)c(O)c2c1 [Compound 12b, (E)-4-hydroxy-6-methyl-N-(4-(3-(4-nitrophenyl)acryloyl)phenyl)-2-oxo-2H-chromene-3-sulfonamide] | ≥ 25 mm |
| O=c1oc2ccc(Cl)cc2c(O)c1S(=O)(=O)Nc1ccc(S(=O)(=O)Nc2nccs2)cc1 [Compound 10e, 6-chloro-4-hydroxy-2-oxo-N-(4-(N-(thiazol-2-yl)sulfamoyl)phenyl)-2H-chromene-3-sulfonamide] | ≥ 25 mm |
| O=c1oc2ccc(Cl)cc2c(O)c1S(=O)(=O)Nc1ccccc1 [Compound 11a, 6-Chloro-4-hydroxy-2-oxo-N-phenyl-2H-chromene-3-sulfonamide] | ≥ 25 mm |
| Cc1ccc2oc(=O)c3c(c2c1)OC(N=Cc1ccc(Cl)cc1Cl)=C(C#N)C3c1ccco1 (racemic) [Compound 8f, (±)-2-((2,4-dichlorobenzylidene)amino)-4-(furan-2-yl)-9-methyl-5-oxo-4H,5H-pyrano[3,2-c]chromene-3-carbonitrile] | ≥ 25 mm |
| Cc1ccc2oc(=O)c3c(c2c1)OC(N)=C(C#N)C3c1ccc([N+](=O)[O-])cc1 (racemic) [Compound 5a, (±)-2-amino-9-methyl-4-(4-nitrophenyl)-5-oxo-4H,5H-pyrano[3,2-c]chromene-3-carbonitrile] | ≥ 25 mm |
| O=c1oc2ccc(Cl)cc2c(O)c1S(=O)(=O)Nc1ccc(O)cc1 [Compound 11c, 6-Chloro-4-hydroxy-N-(4-hydroxyphenyl)-2-oxo-2H-chromene-3-sulfonamide] | ≥ 25 mm |
| Cc1ccc2oc(=O)c3c(c2c1)OC(N=CN(C)C)=C(C#N)C3c1ccco1 (racemic) [Compound 7b, (±)-N′-(3-cyano-4-(furan-2-yl)-9-methyl-5-oxo-4H,5H-pyrano[3,2-c]chromen-2-yl)-N,N-dimethylformimidamide] | 15-19 mm |
| Cc1ccc2oc(=O)c3c(c2c1)OC(N)=C(C#N)C3c1ccco1 (racemic) [Compound 5b, (±)-2-amino-4-(furan-2-yl)-9-methyl-5-oxo-4H,5H-pyrano[3,2-c]chromene-3-carbonitrile] | ≥ 25 mm |
| CC(=O)c1ccc(NS(=O)(=O)c2c(O)c3cc(C)ccc3oc2=O)cc1 [Compound 11f, N-(4-acetylphenyl)-4-hydroxy-6-methyl-2-oxo-2H-chromene-3-sulfonamide] | 15-19 mm |
| Cc1ccc2oc(=O)c3c(c2c1)OC(N=CN(C)C)=C(C#N)C3c1ccc([N+](=O)[O-])cc1 (racemic) [Compound 7a, (±)-N′-(3-cyano-9-methyl-4-(4-nitrophenyl)-5-oxo-4H,5H-pyrano[3,2-c]chromen-2-yl)-N,N-dimethylformimidamide] | 15-19 mm |
| COc1ccc(/C=C/C(=O)c2ccc(NS(=O)(=O)c3c(O)c4cc(C)ccc4oc3=O)cc2)cc1 [Compound 12f, (E)-4-hydroxy-N-(4-(3-(4-methoxyphenyl)acryloyl)phenyl)-6-methyl-2-oxo-2H-chromene-3-sulfonamide] | ≥ 25 mm |
| COc1cc(C=NC2=C(C#N)C(c3ccco3)c3c(c4cc(C)ccc4oc3=O)O2)cc(OC)c1OC (racemic) [Compound 8d, (±)-4-(furan-2-yl)-9-methyl-5-oxo-2-((3,4,5-trimethoxybenzylidene)amino)-4H,5H-pyrano[3,2-c]chromene-3-carbonitrile] | 15-19 mm |
| CC(=O)c1ccc(NS(=O)(=O)c2c(O)c3cc(Cl)ccc3oc2=O)cc1 [Compound 11e, N-(4-acetylphenyl)-6-chloro-4-hydroxy-2-oxo-2H-chromene-3-sulfonamide] | 15-19 mm |
| Cc1ccc2oc(=O)c3c(c2c1)OC(N=Cc1ccccc1)=C(C#N)C3c1ccc([N+](=O)[O-])cc1 (racemic) [Compound 8a, (±)-2-(benzylideneamino)-9-methyl-4-(4-nitrophenyl)-5-oxo-4H,5H-pyrano[3,2-c]chromene-3-carbonitrile] | ≥ 25 mm |
| Cc1ccc2oc(=O)c(S(=O)(=O)Nc3ccccc3)c(O)c2c1 [Compound 11b, 4-Hydroxy-6-methyl-2-oxo-N-phenyl-2H-chromene-3-sulfonamide] | 20-25 mm |
| Cc1ccc2oc(=O)c3c(c2c1)OC(N)=C(C(N)=O)C3c1ccco1 (racemic) [Compound 6b, (±)-2-amino-4-(furan-2-yl)-9-methyl-5-oxo-4H,5H-pyrano[3,2-c]chromene-3-carboxamide] | 15-19 mm |
| O=C(/C=C/c1ccc([N+](=O)[O-])cc1)c1ccc(NS(=O)(=O)c2c(O)c3cc(Cl)ccc3oc2=O)cc1 [Compound 12a, (E)-6-chloro-4-hydroxy-N-(4-(3-(4-nitrophenyl)acryloyl)phenyl)-2-oxo-2H-chromene-3-sulfonamide] | 15-19 mm |
| Cc1ccc2oc(=O)c(S(=O)(=O)Nc3ccc(O)cc3)c(O)c2c1 [Compound 11d, 4-Hydroxy-N-(4-hydroxyphenyl)-6-methyl-2-oxo-2H-chromene-3-sulfonamide] | ≥ 25 mm |
| Cc1ccc2oc(=O)c(S(=O)(=O)Nc3ccc(S(=O)(=O)Nc4ncccn4)cc3)c(O)c2c1 [Compound 10d, 4-hydroxy-6-methyl-2-oxo-N-(4-(N-(pyrimidin-2-yl)sulfamoyl)phenyl)-2H-chromene-3-sulfonamide] | ≥ 25 mm |
| O=C(/C=C/c1ccc(Cl)cc1)c1ccc(NS(=O)(=O)c2c(O)c3cc(Cl)ccc3oc2=O)cc1 [Compound 12c, (E)-6-chloro-N-(4-(3-(4-chlorophenyl)acryloyl)phenyl)-4-hydroxy-2-oxo-2H-chromene-3-sulfonamide] | ≥ 25 mm |
| Cc1ccc2oc(=O)c(S(=O)(=O)Nc3ccc(C(=O)/C=C/c4ccc(Cl)cc4)cc3)c(O)c2c1 [Compound 12d, (E)-N-(4-(3-(4-chlorophenyl)acryloyl)phenyl)-4-hydroxy-6-methyl-2-oxo-2H-chromene-3-sulfonamide] | ≥ 25 mm |
| Cc1ccc2oc(=O)c3c(c2c1)OC(N=Cc1ccc(Cl)cc1Cl)=C(C#N)C3c1ccc([N+](=O)[O-])cc1 (racemic) [Compound 8e, (±)-2-((2,4-dichlorobenzylidene)amino)-9-methyl-4-(4-nitrophenyl)-5-oxo-4H,5H-pyrano[3,2-c]chromene-3-carbonitrile] | 20-25 mm |
